In all, about 52,000 sequences went through this assay and about 210 (0.4%) were called active.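 Rule for the calls: active = gene whose silencing raises cell survival under the drug, median off-target-corrected z-score across its silencing RNAs 2 or more; inactive = the rest.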 The list shows a part of the results.

This assay is described as follows: Resistance to Poly (ADP-Ribose) Polymerase inhibitor: Gene Identification via Genome-wide siRNA Screen. Particulars: mouse BRCA2 R2336H ES cells, olaparib, CellTiter-Glo viability; hits give high values. In outline: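 Genome-wide siRNA screen (3 siRNAs/gene, 20 nM) in mouse ES cells carrying hypomorphic BRCA2 R2336H; olaparib 500 nM added 48 h post-transfection, CellTiter-Glo viability 72 h later. Normalized to plate-median negative control; MAD z-scores, gene median, seed-adjusted.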
In general terms: Cellular ATP, detected with luciferase, serves as a proxy for viable cell number.
Regarding GGGUAUGACCGGUAUUACATT against Atp5j2, the z-score is inactive: 0.11.
For CCGAUUAAAAGAGUGUUUGTT against Nudt8, the z-score is inactive: 0.145.
With “GGUGGAUGGAUCACUGAGUTT against B230325K18Rik”, the z-score was inactive: -1.37.
In the case of GGACCUUGGCUUUAAGAUGTT against Matn1, the z-score was inactive: 0.749.
For GGUGGUAUUCUGUGGACCATT against Mrpl48, the z-score is inactive: -0.927.
With GGUGGUGUUUCUGAACCCATT against Capn5, the z-score was inactive: -0.00609.
The same measure for GCAAACUGCCCUCUUUGUGTT against Olfr1024: inactive: -1.46; for CCGACUGUUAAAGUGGUGUTT against Arih1: inactive: -0.239; for “GGAAAUGCUACUGCUUGGATT against 1700030K09Rik”: inactive: -1.79.
Under GCUGAUACACAGACAUACCTT against Erh stands inactive: -2.28; under “GGAAGGUGAUGAAUCAGCCTT against 2310058J06Rik”, inactive: 0.591.
The same measure for GGGACUUUAAAAAAGACUCTT against Olfr1366: inactive: 0.203; for GGUCUUCGCCACAUGGAAATT against Crkl: inactive: 1.02.
GGCUCUUGUUGAUUGGGCUTT against Thsd6: the z-score is inactive: -0.175.
Under CCAUUUAAGUGUGUGUUAATT against Rbmx stands inactive: 1.08; under GCAAGUAUUAAGUAUGACGTT against Vps13c, inactive: 0.194.
The same measure for CCCUCAUUGUAACCUUAACTT against Olfr792: inactive: -0.245.
The same measure for GGCACAUGAUCCUUAAUUUTT against Pfkfb3: inactive: 2.32.
As for GGUUCUGACCACCUACAUATT against Htr3a, the z-score is inactive: -0.97.
The same measure for GGAGAUCAGUCCUACAAAGTT against Ralbp1: inactive: -0.493.
Regarding GAUCCUUGACUACAUCUAUTT against Accn4, the z-score is inactive: 1.27.
Under “GGUGUGGGUGGGAAAAGAATT against 2610027C15Rik” stands inactive: -1.77; under “GGAUCAUCACUACUACAAUTT against 4932415M13”, inactive: 0.158; under GGAAGUGAUCCUUAAAAGATT against Ebf1, inactive: 0.568.
Under CCAUCAAUUGGAAAUCUUUTT against Tnn stands inactive: 0.698.
The same measure for GGAAAUGUGUCCUUGACCATT against Timd2: inactive: -0.0731.
In the case of GGAUCCUAGUGAUGAUAAUTT against Styx, the z-score was inactive: -0.857.
The same measure for “GGAACAUAUGCUCAGAAGATT against 1110031B11Rik”: inactive: 0.034.
In the case of CGGCAUGCUGUGGAAAAAGTT against Btrc, the z-score is inactive: -0.222.
The same measure for GGACAAGGCCAAGCUAUAATT against Cntnap2: inactive: -2.01.
As to GCUAAAUUGUAUCCCUUCUTT against Pou2af1, the z-score is inactive: -0.145.
Under “GCGUAAAAUUUGGUGCAACTT against 4930452B06Rik” stands inactive: 3.01; under GGUACACUGGAUUUUCUGGTT against Slc4a1, inactive: -0.254.
Turning to GGCUUAUCUAACCAAGUACTT against Prdm4, the z-score is inactive: 0.592.
For the sequence CCUACUAUAUAUGUGAUGCTT against Jrk, the z-score was inactive: 1.98.
For the sequence GGGAUUUUACAGACUUAAGTT against Tm4sf1, the z-score was inactive: -0.628.
Under “GGUGCUGGACAAAUUGAGATT against E330016A19Rik” stands inactive: 0.665; under CCAGUGAAUGACUUCACUCTT against Rpp21, inactive: -0.065; under CGGGAAAUUUCUAUUGGACTT against Akr1c12, inactive: 0.0337.
Under CCUAUAAUGCUUACAGGAUTT against Olfr477 stands inactive: -1.02; under GCUCUAUUGUCUGGUAUUGTT against AJ543404, inactive: -0.868.
For “GGAAGUAGAUUUGAAGUUGTT against 1700017G21Rik”, the z-score was inactive: 0.871.
Under GGUACACAUAACACAGAUATT against Rpl23 stands inactive: 0.38; under GGAACAUUGAUGGAAUUGGTT against Sec61a2, inactive: 0.0933; under GGCUUAAACGAUUUUUCCATT against Elp3, inactive: 0.439.
The same measure for GCUAAUUACAGCUUCUCCCTT against Yars: inactive: 3.02.
On to “GGCUGAGUUUAUUUUUGAGTT against D930036F22Rik”, for which the z-score is inactive: -0.183.
Under GGUGAAAGAUGCCUCUAAGTT against Olfr1038 stands inactive: -0.231.
On to “CGAUUACAUCCUUUUUGACTT against A930018B01Rik”, for which the z-score is inactive: 0.363.
On to CCCAAUCAGCAUUUGCUCUTT against H2-M10.3, for which the z-score was inactive: 1.25.
Under GGCAUCAAUCAUGAGCAUUTT against Chrna4 stands inactive: 0.103; under “GGUCACGGAGAAACUAAAGTT against 2700017M01Rik”, inactive: 0.727; under GGAAAGGACUGGAAGAAUUTT against Mrpl47, inactive: 0.315.
Under CCCUGUAAGGACCAAUAAATT against Dact1 stands inactive: -0.0457; under “CGGAGGAGAAAUCUUGUAATT against 6820416H06Rik”, inactive: -0.504; under “GCAUAUCCUAAACACUGUUTT against E030024M05Rik”, inactive: -0.433.
The same measure for GGACCAGUUGUAAAUGUUATT against Hoxd9: inactive: -0.318; for GGUGGCAAUGACAACUACUTT against Rnase4: inactive: -0.634; for GGACAAAAUUGAACACAAGTT against Pogz: inactive: 0.536.
Turning to GGUUUUCAGUACAUCCUGGTT against Cryba4, the z-score is inactive: 1.34.
As to UCCCAGAAUAAGAGUGAGGTT against Aplra1, the z-score is inactive: 0.702.
On to “GGGUGAUAGCUCCUAUGUGTT against A530023G15Rik”, for which the z-score was inactive: 0.569.
The same measure for GGAUCUGCACACCUAUGGGTT against Prok2: inactive: -0.878.
Consider GGUCCACCUCAACAAGCUATT against Zfp536, for which the z-score was inactive: 0.942.
For GGUAGAAGCCAAGAUGAGCTT against Abi3, the z-score is inactive: 0.796.
Consider “GCCCUUCGCUUAGUCAGAATT against 4921505C17Rik”, for which the z-score was inactive: -0.144.
Consider GGAAGUGGCUUUUUAUCAGTT against Arhgap6, for which the z-score was inactive: 0.0376.
Under CAUUGUCAUUCUAGUUGCATT against Olfr1251 stands inactive: 1.56; under GGAGAUUGACCUGGUCAACTT against Cav1, inactive: -0.0906.
Under “GGUUUAUACUCAUAACCUGTT against 2510003E04Rik” stands inactive: 1.91; under GGGUCAGGAGGAAAAAAAATT against Reps1, inactive: 0.869.
Consider GGAGUUUGUUAAUUUCGCATT against Rap2ip, for which the z-score was inactive: 0.0748.
GGGACAAUGCUGUCAUUGATT against Noxa1: the z-score was inactive: -1.4.
GCCCGUUCCACUUUUGGAGTT against Nedd1: the z-score is inactive: 0.715.
Take GGAGACGAGUCACAUCUCATT against Cables2: the z-score is inactive: 0.578.
For the sequence GGAACAACUUGAUACCUCUTT against Trim44, the z-score was inactive: -1.48.
The same measure for GGAGCUGCUGUUAAUUCCATT against Col5a3: inactive: -0.383; for CCAUAGGAAUGCAUUUGAGTT against Arhgef7: inactive: -1.66.
For the sequence CCUUGAAGUAUCAGGUGGATT against Sytl3, the z-score was inactive: -0.232.
CCUUUGUCCUUUUGUUGUGTT against Defb15: the z-score is inactive: 0.748.
The same measure for CCACGUAGGUAAGUGUAGGTT against AI314976: inactive: 0.0873; for CCUCCAGUUCAGAAUUCUATT against Surf4: inactive: -0.141; for GCCCUUACCAUGUGUCCUUTT against Olfr1346: inactive: -0.663.
Under GGCCUUGCUUCAUAUAAGGTT against Myst4 stands inactive: -0.139; under GGGUAGUGGUGAGCAAGACTT against Wnt10b, inactive: -0.39.
The same measure for “CCAACGUGCUGAAUUAUUATT against D230002A01Rik”: inactive: -0.183; for GGAACUGAAGUUGAAAUAATT against Pkhd1l1: inactive: -1.57; for CCCUCUGGAUGGAUCUUCATT against Fbp2: inactive: 0.555.
With GGAUGAUCACACUAGAGUUTT against BC017647, the z-score is inactive: -1.38.
Take GGAAGUGAUAUCAUCGUAGTT against Dnajb11: the z-score was inactive: -0.888.
The same measure for GGAGACUAUUACCAUACUGTT against P4ha2: inactive: 0.46; for “GCUCGAGAAGAGUUUGUUATT against 1700030J22Rik”: inactive: -0.397; for CGGACUUCUCAAGACUUAUTT against AI451557: inactive: 0.136.
The same measure for GUACAUGAGAGACCCUGAUTT against Lsm7: inactive: -2.03; for GGGCAAGUUUUCUACAUUUTT against Cntnap2: inactive: 0.942.
Consider GGUGAUUGAACAGAGCUACTT against Slc2a4, for which the z-score was inactive: -0.792.
The same measure for GGGUCAACCCGAUAUUACCTT against Kcnh7: inactive: 0.826; for GCAAUUAGUAUCUAUUACCTT against Txnl5: inactive: -0.353.
Under GCUACCCUCGUUGUUGACATT against Hcrtr2 stands inactive: -1.36; under “CCUGAUGUAGAAGCAUACUTT against 2310004K06Rik”, inactive: 1.41.
Consider GGAUGUAACUAGUAACUUUTT against Kcnn3, for which the z-score is inactive: -1.07.
As for GGAAAUCGAGCAAAAGACATT against BC046331, the z-score was inactive: 0.0524.
Turning to GCAUGAGUAUUCCAAGGAGTT against Arhgef7, the z-score is inactive: -0.0633.

For the origin of these results see PubChem BioAssay AID1347423 (Functional Genomics Laboratory (NCATS/FGL), 2020).
